Test results: the supplement of paper PMC10849652
This is one part of the list.

Chains of the proteins cited; added tags and fusions are not shown. Lines headed by an entry give the natural chain unless they say otherwise; changes in a name come on top.
UniProt Q9C0I1: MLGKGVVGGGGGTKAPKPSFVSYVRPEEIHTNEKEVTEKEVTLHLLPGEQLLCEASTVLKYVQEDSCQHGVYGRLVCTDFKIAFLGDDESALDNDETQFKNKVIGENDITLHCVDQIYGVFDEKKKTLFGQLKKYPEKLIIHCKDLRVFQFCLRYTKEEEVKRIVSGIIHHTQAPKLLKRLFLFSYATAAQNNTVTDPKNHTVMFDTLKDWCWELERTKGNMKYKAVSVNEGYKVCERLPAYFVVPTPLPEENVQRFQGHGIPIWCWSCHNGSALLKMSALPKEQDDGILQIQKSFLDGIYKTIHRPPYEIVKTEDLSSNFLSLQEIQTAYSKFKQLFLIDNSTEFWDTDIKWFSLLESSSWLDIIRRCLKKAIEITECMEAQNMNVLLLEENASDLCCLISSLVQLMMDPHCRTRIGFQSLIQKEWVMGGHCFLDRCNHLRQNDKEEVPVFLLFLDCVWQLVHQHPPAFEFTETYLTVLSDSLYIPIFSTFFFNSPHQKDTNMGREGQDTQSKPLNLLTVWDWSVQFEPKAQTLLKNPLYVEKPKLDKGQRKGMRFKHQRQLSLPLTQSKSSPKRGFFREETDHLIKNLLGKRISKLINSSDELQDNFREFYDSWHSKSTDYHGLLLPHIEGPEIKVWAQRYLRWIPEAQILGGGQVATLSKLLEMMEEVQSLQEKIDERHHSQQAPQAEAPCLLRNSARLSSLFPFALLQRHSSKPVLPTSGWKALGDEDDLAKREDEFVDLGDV
UniProt Q9H019: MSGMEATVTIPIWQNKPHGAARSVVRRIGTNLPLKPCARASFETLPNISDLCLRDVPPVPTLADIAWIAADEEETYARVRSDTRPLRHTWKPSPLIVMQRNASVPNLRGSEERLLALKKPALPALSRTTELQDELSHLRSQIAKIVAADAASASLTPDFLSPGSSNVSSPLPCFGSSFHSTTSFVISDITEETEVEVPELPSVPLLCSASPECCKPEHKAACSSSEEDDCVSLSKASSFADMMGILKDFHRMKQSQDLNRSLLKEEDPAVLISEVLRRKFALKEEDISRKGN
UniProt Q9P0P8: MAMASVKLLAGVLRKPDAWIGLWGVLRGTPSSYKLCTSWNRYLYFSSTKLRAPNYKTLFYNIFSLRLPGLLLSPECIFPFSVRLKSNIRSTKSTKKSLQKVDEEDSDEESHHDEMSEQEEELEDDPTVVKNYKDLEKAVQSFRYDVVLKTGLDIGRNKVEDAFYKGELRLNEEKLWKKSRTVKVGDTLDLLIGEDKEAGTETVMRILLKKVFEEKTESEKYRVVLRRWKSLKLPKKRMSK
UniProt P03905, whole entry, looked up: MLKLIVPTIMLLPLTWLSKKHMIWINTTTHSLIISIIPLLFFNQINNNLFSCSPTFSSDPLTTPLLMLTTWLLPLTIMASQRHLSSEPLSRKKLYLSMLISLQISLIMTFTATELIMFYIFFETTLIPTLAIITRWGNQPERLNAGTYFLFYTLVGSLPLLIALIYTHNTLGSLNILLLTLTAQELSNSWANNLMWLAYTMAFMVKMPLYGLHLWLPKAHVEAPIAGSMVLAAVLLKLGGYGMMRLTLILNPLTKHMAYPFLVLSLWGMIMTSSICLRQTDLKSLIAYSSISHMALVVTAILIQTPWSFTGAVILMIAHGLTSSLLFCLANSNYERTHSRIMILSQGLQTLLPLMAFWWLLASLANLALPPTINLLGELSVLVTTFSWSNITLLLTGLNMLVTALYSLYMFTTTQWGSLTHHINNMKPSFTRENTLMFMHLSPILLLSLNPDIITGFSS
UniProt Q9UBK8: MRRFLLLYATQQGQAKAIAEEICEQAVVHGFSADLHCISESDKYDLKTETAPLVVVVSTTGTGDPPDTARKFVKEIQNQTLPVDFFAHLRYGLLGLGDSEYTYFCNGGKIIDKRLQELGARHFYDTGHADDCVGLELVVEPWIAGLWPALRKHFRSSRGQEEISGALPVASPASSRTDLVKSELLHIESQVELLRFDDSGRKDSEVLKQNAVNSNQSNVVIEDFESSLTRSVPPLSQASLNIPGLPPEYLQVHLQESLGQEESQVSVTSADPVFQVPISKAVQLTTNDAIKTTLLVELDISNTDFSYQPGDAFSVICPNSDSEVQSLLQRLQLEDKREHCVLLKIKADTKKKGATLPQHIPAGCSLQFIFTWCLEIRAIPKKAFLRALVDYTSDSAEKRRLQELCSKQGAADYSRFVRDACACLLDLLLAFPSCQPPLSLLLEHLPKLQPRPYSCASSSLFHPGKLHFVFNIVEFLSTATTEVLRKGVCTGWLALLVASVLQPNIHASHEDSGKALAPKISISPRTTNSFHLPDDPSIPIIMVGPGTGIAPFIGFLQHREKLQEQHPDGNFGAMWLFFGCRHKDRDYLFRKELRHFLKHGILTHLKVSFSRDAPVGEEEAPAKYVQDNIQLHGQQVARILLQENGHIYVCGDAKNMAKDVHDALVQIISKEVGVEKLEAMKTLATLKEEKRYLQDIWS
UniProt P03928: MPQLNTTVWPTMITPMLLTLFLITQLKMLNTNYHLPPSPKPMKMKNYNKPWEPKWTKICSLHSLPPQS
UniProt Q2M296: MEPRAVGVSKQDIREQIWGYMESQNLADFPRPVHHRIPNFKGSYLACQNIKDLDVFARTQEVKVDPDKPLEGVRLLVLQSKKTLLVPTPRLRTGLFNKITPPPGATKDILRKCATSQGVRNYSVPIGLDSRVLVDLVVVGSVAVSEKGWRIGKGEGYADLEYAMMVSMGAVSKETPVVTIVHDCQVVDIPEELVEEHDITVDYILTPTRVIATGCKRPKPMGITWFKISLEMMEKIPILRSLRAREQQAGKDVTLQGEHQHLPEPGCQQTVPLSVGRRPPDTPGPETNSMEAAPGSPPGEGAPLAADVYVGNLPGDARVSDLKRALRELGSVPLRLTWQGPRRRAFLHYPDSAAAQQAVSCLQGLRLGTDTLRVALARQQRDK
UniProt Q9Y4B5: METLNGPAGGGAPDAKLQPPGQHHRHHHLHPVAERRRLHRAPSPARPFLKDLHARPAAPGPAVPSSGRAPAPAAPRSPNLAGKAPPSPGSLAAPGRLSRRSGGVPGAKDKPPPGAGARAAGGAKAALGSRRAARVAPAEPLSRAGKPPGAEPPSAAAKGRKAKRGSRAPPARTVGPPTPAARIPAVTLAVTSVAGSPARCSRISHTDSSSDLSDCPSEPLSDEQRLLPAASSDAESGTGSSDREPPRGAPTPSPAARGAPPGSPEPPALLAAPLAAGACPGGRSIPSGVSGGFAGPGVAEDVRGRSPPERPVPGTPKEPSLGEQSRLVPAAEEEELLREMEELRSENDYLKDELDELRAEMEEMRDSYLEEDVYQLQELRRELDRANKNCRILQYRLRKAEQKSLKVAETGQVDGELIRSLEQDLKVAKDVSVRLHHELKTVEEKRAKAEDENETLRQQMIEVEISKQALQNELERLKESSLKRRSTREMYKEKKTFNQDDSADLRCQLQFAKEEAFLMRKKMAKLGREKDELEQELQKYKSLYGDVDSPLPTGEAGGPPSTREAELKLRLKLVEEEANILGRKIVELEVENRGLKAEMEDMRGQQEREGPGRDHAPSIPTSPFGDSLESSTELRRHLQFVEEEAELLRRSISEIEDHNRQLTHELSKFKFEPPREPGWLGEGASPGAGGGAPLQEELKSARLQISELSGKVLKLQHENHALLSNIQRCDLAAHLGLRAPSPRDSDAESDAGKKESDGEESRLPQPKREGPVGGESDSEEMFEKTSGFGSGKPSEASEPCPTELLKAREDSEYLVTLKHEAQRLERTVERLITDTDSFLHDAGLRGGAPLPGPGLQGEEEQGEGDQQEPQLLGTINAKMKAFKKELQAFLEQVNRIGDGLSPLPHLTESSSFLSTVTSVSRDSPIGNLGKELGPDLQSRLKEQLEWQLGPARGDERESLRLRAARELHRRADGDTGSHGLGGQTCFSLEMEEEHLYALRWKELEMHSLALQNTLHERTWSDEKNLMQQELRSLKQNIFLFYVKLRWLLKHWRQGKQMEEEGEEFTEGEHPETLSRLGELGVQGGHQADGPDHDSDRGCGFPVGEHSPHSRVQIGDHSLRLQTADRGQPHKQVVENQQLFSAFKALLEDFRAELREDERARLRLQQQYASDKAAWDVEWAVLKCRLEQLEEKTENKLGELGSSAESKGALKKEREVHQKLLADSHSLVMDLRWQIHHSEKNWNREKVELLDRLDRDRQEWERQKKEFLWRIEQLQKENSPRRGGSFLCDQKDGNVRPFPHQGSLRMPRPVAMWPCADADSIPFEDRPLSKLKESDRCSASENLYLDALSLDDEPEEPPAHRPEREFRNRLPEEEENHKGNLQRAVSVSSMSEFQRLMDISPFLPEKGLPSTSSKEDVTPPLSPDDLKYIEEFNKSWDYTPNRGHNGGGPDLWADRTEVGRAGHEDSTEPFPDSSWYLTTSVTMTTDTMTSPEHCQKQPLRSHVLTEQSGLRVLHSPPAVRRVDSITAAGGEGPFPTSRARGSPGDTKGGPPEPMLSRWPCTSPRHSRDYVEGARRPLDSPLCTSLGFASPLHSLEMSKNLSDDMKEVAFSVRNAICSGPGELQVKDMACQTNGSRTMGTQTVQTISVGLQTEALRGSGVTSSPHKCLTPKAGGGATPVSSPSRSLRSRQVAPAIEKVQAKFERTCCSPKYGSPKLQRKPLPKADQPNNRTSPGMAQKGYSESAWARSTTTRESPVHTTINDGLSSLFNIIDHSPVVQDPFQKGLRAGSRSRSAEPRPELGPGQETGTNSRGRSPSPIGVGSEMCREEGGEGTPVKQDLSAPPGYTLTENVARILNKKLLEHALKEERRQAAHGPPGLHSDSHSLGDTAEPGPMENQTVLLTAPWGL
UniProt Q9Y217: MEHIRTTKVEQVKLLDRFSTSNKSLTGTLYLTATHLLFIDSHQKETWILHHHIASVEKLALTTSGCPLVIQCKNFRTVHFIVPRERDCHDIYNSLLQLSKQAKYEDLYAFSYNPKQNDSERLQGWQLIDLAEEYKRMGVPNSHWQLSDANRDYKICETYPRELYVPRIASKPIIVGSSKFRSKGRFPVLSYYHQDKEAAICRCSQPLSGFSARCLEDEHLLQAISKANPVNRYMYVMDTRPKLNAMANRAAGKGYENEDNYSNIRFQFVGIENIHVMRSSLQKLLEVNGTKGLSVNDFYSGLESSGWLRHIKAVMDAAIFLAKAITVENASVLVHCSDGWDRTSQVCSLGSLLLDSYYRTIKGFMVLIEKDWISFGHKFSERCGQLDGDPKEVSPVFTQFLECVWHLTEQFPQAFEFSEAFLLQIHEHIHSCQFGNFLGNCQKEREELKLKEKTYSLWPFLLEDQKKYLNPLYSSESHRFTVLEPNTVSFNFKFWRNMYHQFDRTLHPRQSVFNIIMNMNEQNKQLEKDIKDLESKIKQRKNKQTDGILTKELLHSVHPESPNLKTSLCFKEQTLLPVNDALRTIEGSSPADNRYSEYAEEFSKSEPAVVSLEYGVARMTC
UniProt P49914: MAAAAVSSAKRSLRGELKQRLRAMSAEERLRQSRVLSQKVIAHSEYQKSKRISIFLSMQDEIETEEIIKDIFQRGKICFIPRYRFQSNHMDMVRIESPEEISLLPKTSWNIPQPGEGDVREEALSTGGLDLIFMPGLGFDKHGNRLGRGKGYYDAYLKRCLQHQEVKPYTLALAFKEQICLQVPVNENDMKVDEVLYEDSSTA
UniProt Q969V6: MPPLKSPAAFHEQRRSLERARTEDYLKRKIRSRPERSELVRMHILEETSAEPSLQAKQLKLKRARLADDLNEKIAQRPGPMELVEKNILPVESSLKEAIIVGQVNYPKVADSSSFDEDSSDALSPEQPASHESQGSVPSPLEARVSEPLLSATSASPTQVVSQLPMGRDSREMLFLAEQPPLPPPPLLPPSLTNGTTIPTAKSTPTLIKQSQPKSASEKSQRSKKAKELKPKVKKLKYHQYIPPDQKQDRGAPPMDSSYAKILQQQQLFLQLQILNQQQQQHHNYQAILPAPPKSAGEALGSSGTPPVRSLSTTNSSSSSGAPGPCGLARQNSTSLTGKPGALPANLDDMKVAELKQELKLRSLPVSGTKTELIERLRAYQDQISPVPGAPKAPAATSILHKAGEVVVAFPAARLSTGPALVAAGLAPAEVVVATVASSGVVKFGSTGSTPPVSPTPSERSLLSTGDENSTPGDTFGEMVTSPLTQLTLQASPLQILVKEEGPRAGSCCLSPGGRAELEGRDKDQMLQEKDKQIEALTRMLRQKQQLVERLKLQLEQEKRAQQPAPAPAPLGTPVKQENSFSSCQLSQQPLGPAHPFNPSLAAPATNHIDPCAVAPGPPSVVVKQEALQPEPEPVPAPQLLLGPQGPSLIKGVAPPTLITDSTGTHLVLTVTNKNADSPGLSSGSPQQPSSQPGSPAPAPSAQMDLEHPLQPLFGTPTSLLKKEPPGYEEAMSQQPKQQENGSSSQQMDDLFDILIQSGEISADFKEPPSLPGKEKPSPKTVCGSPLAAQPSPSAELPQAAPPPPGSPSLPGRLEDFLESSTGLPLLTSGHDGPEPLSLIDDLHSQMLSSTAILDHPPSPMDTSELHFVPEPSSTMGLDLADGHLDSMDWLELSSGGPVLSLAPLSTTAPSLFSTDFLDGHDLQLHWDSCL

How the values were obtained:
Test in all cases: log2 fold change, soluble protein after heating vs DMSO (PISA); higher = thermal stabilisation; K562 lysate, 10 uM; active = over 0.2 and 3.5 SD of the protein, either way, in both replicates (recomputed)
erlotinib = compound: C#Cc1cccc(Nc2ncnc3cc(OCCOC)c(OCCOC)cc23)c1 [erlotinib]
How it was run: (§1)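 K562 pellets were dounce-homogenised in PBS pH 7.4 containing 1 mM MgCl2, and the crude extract, at 1 mg/mL protein, was exposed to 10 μM compound for 30 min. Aliquots were heated for 3 min across 48°C-58°C, pooled, brought to 0.5% NP-40 at 4°C and spun at 21,000xg for 90 min, with the supernatant taken as soluble protein. TMTpro 16plex LC-MS/MS with equalised channel sums quantified that protein. Values are log-two fold changes in thermal stability relative to solvent controls, taken from duplicates.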

[1] = compound: C/C(=N\NC(=O)C1=CC(=CC=C1)S(=O)(=O)N2CCOCC2)/C3=C(C=CC(=C3)Cl)O
How it was run: as §1

[2] = compound: C1=CC(=CC=C1C2=NC3=C(N2)C=C(C=C3)C(=O)N)OC4=CC=C(C=C4)Cl
How it was run: as §1

[3] = compound: C1=CC2=C(C=CC(=C2)/C=C\3/C(=O)NC(=NCC4=CC=CS4)S3)N=C1
How it was run: as §1

[4] = compound: C1=CC2=NC=CN=C2C=C1/C=C/3\C(=O)NC(=O)S3
How it was run: as §1

[5] = compound: C1=CC=C(C=C1)C2=NC(=C(N2)C3=CC=NC=C3)C4=CC(=C(C=C4)Cl)O
How it was run: as §1

[6] = compound: C1=CC=C2C(=C1)C3=NNC4=CC=CC(=C43)C2=O
How it was run: as §1

[7] = compound: C1CCN(C1)C(=O)NC2=CC=CC(=C2)NC3=NC=C(C(=N3)NCCC4=CN=CN4)Br
How it was run: as §1

[8] = compound: C1CN(CCC1(CC2=CC=C(C=C2)Cl)N)C3=NC=NC4=C3C=CN4
How it was run: as §1

IRAK-1-4 Inhibitor I = compound: C1COCCN1CCN2C3=CC=CC=C3N=C2NC(=O)C4=CC(=CC=C4)[N+](=O)[O-] [IRAK-1-4 Inhibitor I]
How it was run: as §1

ibrutinib = compound: C=CC(=O)N1CCC[C@@H](n2nc(-c3ccc(Oc4ccccc4)cc3)c3c(N)ncnc32)C1 [ibrutinib]
How it was run: as §1

[9] = compound: CC(=O)c1cnc2ccc(-c3cc(Cl)c(O)c(Cl)c3)nc2c1N[C@H]1CC[C@H](CN(C)C)CC1
How it was run: as §1

ralimetinib = compound: CC(C)(C)Cn1c(N)nc2ccc(-c3[nH]c(C(C)(C)C)nc3-c3ccc(F)cc3)nc21 [ralimetinib]
How it was run: as §1

[10] = compound: CC(C)(O)CC(=O)NCCn1ccc2ncnc(Nc3ccc(Oc4cccc(C(F)(F)F)c4)c(Cl)c3)c21
How it was run: as §1

[11] = compound: CC(C)C1=C2N=C(C=C(N2N=C1)NCC3=CC=CC=C3)NCCCCCCN
How it was run: as §1

[12] = compound: CC1=C(C(CC(=O)N1)C2=CC=C(C=C2)C(F)(F)F)C(=O)NC3=C(C=C4C(=C3)C=NN4)F
How it was run: as §1

[13] = compound: CC1=C(C2=C(C=C1)C(=O)C3=CC=CC=C3N2CCCN)C
How it was run: as §1

[14] = compound: CC1=C(C=C(C=C1)NC(=O)C2=CC(=CC=C2)C(C)(C)C#N)NC3=CC4=C(C=C3)N=CN(C4=O)C
How it was run: as §1

[15] = compound: CC1=C(C=C(C=C1)NC(=O)C2=CC(=CC=C2)N(C)C)NC(=O)C3=CC=C(C=C3)O
How it was run: as §1

[16] = compound: CC1=CC=C(C=C1)SC2=C3C=C(SC3=CN=C2)C(=O)N
How it was run: as §1

Measured: log2 fold change

MRPS30 (UniProt Q9NP92)
inactive: erlotinib -0.002 | [1] 0.014 | [2] 0.047 | [3] -0.005 | [4] -0.089 | [5] 0.006 | [6] -0.1 | [7] -0.032 | [8] 0.062 | IRAK-1-4 Inhibitor I 0.003 | ibrutinib 0.022 | [9] -0.069 | ralimetinib 0.049 | [10] -0.027 | [11] 0.012 | [12] 0.028 | [13] 0.006 | [14] 0.018 | [15] 0.058 | [16] -0.114

MTMR12 (UniProt Q9C0I1)
inactive: erlotinib -0.014 | [1] -0.008 | [2] -0.015 | [3] 0.032 | [4] -0.013 | [5] 0.022 | [6] 0.026 | [7] -0.019 | [8] 0.017 | IRAK-1-4 Inhibitor I 0.017 | ibrutinib 0.053 | [9] -0.01 | ralimetinib 0.006 | [10] -0.019 | [11] -0.024 | [12] 0.039 | [13] -0.051 | [14] -0.025 | [15] -0.004 | [16] -0.027

MTFR1L (UniProt Q9H019)
inactive: erlotinib -0.017 | [1] -0.024 | [2] -0.067 | [3] -0.048 | [4] 0.013 | [5] -0.034 | [6] -0.055 | [7] -0.041 | [8] -0.035 | IRAK-1-4 Inhibitor I 0.009 | ibrutinib 0.119 | [9] -0.052 | ralimetinib 0.061 | [10] -0.019 | [11] 0.049 | [12] 0.084 | [13] -0.009 | [14] 0.08 | [15] 0.028 | [16] -0.048

MTRES1 (UniProt Q9P0P8)
inactive: erlotinib 0 | [1] 0.142 | [2] 0.01 | [3] -0.062 | [4] -0.043 | [5] -0.016 | [6] 0.005 | [7] 0.05 | [8] 0.004 | IRAK-1-4 Inhibitor I 0.003 | ibrutinib -0.06 | [9] -0.042 | ralimetinib 0.003 | [10] 0.035 | [11] -0.051 | [12] 0.091 | [13] -0.093 | [14] 0.027 | [15] 0.033 | [16] -0.011

MT-ND4 (UniProt P03905)
inactive: erlotinib -0.073 | [1] -0.118 | [2] -0.012 | [3] -0.104 | [4] -0.024 | [5] -0.038 | [6] 0.144 | [7] 0.008 | [8] 0.076 | IRAK-1-4 Inhibitor I 0.004 | ibrutinib 0.119 | [9] -0.015 | ralimetinib -0.017 | [10] -0.036 | [11] -0.019 | [12] 0.067 | [13] -0.13 | [14] 0.046 | [15] 0.038 | [16] 0.165

MTRR isoform 1 (UniProt Q9UBK8)
inactive: erlotinib 0.006 | [1] -0.046 | [2] 0.017 | [3] 0.007 | [4] -0.048 | [5] -0.012 | [6] -0.028 | [7] -0.031 | [8] 0.013 | IRAK-1-4 Inhibitor I -0.012 | ibrutinib 0.03 | [9] -0.081 | ralimetinib 0.004 | [10] -0.013 | [11] 0.002 | [12] -0.01 | [13] -0.009 | [14] 0.027 | [15] -0.045 | [16] 0.039

MT-ATP8 (UniProt P03928)
inactive: erlotinib 0.069 | [1] 0.006 | [2] -0.006 | [3] -0.041 | [4] 0.103 | [5] -0.103 | [6] -0.062 | [7] 0.116 | [8] 0.068 | IRAK-1-4 Inhibitor I 0.033 | ibrutinib -0.035 | [9] -0.052 | ralimetinib 0.005 | [10] -0.109 | [11] -0.087 | [12] -0.082 | [14] 0.153 | [15] 0.047 | [16] 0.104

MRPS31 (UniProt Q92665)
inactive: erlotinib -0.015 | [1] -0.042 | [2] 0.056 | [3] 0.042 | [4] -0.021 | [5] -0.028 | [6] -0.048 | [7] -0.022 | [8] 0.02 | IRAK-1-4 Inhibitor I 0.005 | ibrutinib -0.01 | [9] -0.039 | ralimetinib -0.006 | [10] -0.006 | [11] 0 | [12] -0.01 | [13] -0.071 | [14] -0.006 | [15] -0.022 | [16] -0.006

Random excerpt: two records from the list
MT-ATP8 (UniProt P03928)
inactive: erlotinib 0.069 | [1] 0.006 | [2] -0.006 | [3] -0.041 | [4] 0.103 | [5] -0.103 | [6] -0.062 | [7] 0.116 | [8] 0.068 | IRAK-1-4 Inhibitor I 0.033 | ibrutinib -0.035 | [9] -0.052 | ralimetinib 0.005 | [10] -0.109 | [11] -0.087 | [12] -0.082 | [14] 0.153 | [15] 0.047 | [16] 0.104

MTRES1 (UniProt Q9P0P8)
inactive: erlotinib 0 | [1] 0.142 | [2] 0.01 | [3] -0.062 | [4] -0.043 | [5] -0.016 | [6] 0.005 | [7] 0.05 | [8] 0.004 | IRAK-1-4 Inhibitor I 0.003 | ibrutinib -0.06 | [9] -0.042 | ralimetinib 0.003 | [10] 0.035 | [11] -0.051 | [12] 0.091 | [13] -0.093 | [14] 0.027 | [15] 0.033 | [16] -0.011

Later entries:

MTHFSD isoform 3 (UniProt Q2M296)
inactive: erlotinib -0.01 | [1] -0.343 | [2] 0.05 | [3] 0.053 | [4] -0.037 | [5] -0.088 | [6] -0.104 | IRAK-1-4 Inhibitor I -0.004 | ibrutinib -0.047 | [9] -0.013 | ralimetinib 0.069 | [10] 0.042 | [11] 0.095 | [12] -0.055 | [13] -0.15 | [14] -0.203 | [15] 0.037 | [16] -0.041

MTCL1 (UniProt Q9Y4B5)
inactive: erlotinib 0.034 | [1] -0.03 | [2] 0.033 | [3] 0.063 | [4] -0.039 | [5] 0.079 | [6] -0.099 | [7] -0.078 | [8] 0.017 | IRAK-1-4 Inhibitor I 0.035 | ibrutinib -0.112 | [9] -0.047 | ralimetinib -0.171 | [10] -0.192 | [11] 0.032 | [13] -0.045 | [14] -0.002 | [15] 0.019 | [16] -0.008

MTMR6 (UniProt Q9Y217)
inactive: erlotinib 0.01 | [1] 0.044 | [2] 0.002 | [3] -0.008 | [4] -0.004 | [5] -0.009 | [6] -0.052 | [7] -0.013 | [8] 0.015 | IRAK-1-4 Inhibitor I -0.013 | ibrutinib 0.011 | [9] -0.02 | ralimetinib 0.041 | [10] 0.026 | [11] 0.043 | [12] -0.044 | [13] 0.006 | [14] 0.121 | [15] 0.011 | [16] -0.006

MRPL45 (UniProt Q9BRJ2)
inactive: erlotinib 0.033 | [1] 0.038 | [2] 0.027 | [3] 0.032 | [4] 0.035 | [5] -0.018 | [6] -0.04 | [7] -0.005 | [8] 0.011 | IRAK-1-4 Inhibitor I 0.069 | ibrutinib 0.079 | [9] -0.026 | ralimetinib -0.01 | [10] 0.042 | [11] 0.038 | [12] 0.003 | [13] -0.028 | [14] 0.066 | [15] 0.095 | [16] -0.008

MTHFS (UniProt P49914)
inactive: erlotinib -0.041 | [1] -0.084 | [2] 0.03 | [3] 0.026 | [4] 0.037 | [5] 0.039 | [6] -0.016 | [7] -0.031 | [8] 0.04 | IRAK-1-4 Inhibitor I -0.037 | ibrutinib -0.013 | [9] -0.021 | ralimetinib 0.004 | [10] 0.005 | [11] 0.003 | [12] -0.009 | [13] -0.001 | [14] 0.077 | [15] 0.064 | [16] -0.034

MRPS11 (UniProt P82912)
inactive: erlotinib 0.073 | [1] -0.057 | [2] 0.002 | [3] 0.028 | [4] -0.067 | [5] -0.014 | [6] -0.216 | [7] 0.012 | [8] 0.113 | IRAK-1-4 Inhibitor I 0.035 | ibrutinib 0.003 | [9] 0.021 | ralimetinib 0.083 | [10] -0.024 | [11] 0.036 | [12] 0.049 | [13] -0.015 | [14] 0.011 | [15] 0.024 | [16] -0.023

MRPL44 (UniProt Q9H9J2)
inactive: erlotinib -0.005 | [1] 0.008 | [2] 0.051 | [3] 0.02 | [4] -0.067 | [5] 0.053 | [6] 0.004 | [7] -0.001 | [8] 0.018 | IRAK-1-4 Inhibitor I -0.024 | ibrutinib 0.134 | [9] -0.068 | ralimetinib 0.018 | [10] -0.022 | [11] 0.018 | [12] -0.039 | [13] -0.045 | [14] -0.017 | [15] 0.051 | [16] 0.008

MRTFA (UniProt Q969V6)
inactive: erlotinib 0.096 | [1] -0.288 | [2] -0.015 | [3] 0.019 | [4] -0.04 | [5] 0.028 | [6] -0.108 | [7] 0.012 | [8] 0.006 | IRAK-1-4 Inhibitor I 0.057 | ibrutinib 0.062 | ralimetinib 0.057 | [10] -0.219 | [11] -0.075 | [12] 0.012 | [13] -0.034 | [14] 0.017 | [15] -0.018
